# Measurements reported in PubChem BioAssay AID1259254 (NCATS, 2017).
# Assay: 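Finding genes that stop cells copying their DNA twice in one cycle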 (primary screen)
# System: human HCT116 colorectal cancer cells
# Reagents: single siRNA against human genes
# Duration: 3 days
# Measurement: 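Imaged Hoechst DNA stain sorts each cell into a cycle phase by DNA amount; per plate, G2 fraction set to 0% for non-targeting and 100% for GMNN siRNA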
# Reading the numbers: G2 robust z-score and G2 cells, % of GMNN control: higher = more G2 cells, more excess DNA replication; raw share of cells in G2: higher = larger share of cells with G2 DNA content
# Call rule: 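An siRNA counts as active if its G2 robust z-score lies at least 5 MADs above the screen median; here such calls match roughly 38% of GMNN control or more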
# The deposit covers about 59,000 reagents; shown is a part drawn at random. Over the whole deposit, about 1,550 (2.6%) got an active call. 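G2 share is only a proxy for re-replication; each gene was hit by three separate siRNAs, and active genes were retested.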 Raw values are not corrected between plates. A number with no mark means an inactive call. Reagent sequences are not shown. The record does not give: the amount of reagent.
gene,PubChem SID,G2 robust z-score,"G2 cells, % of GMNN control",raw share of cells in G2 (%)
TMEM147,SID160728404,-0.754,-2.34,4.68
TMEM147,SID160728405,0.656,7.58,6.29
TMEM147,SID160728406,1.23,11.6,11
SLC15A3,SID160740528,-0.848,-3,3.14
SLC15A3,SID160740529,-0.992,-4.01,2.26
SLC15A3,SID160740530,2.5,20.6,15.3
GSTA1,SID160774643,-0.0442,2.66,4.6
GSTA1,SID160774644,-0.83,-2.87,4.17
GSTA1,SID160774645,0.24,4.65,6.93
RAB12,SID160730756,-0.0503,2.61,5.8
RAB12,SID160760987,0.756,8.28,7.73
RAB12,SID160760989,1.55,13.9,12.6
MICOS13,SID160724774,1.26,11.8,8.63
MICOS13,SID160724775,0.421,5.93,4.98
MICOS13,SID160724776,-0.409,0.0896,2.61
CABLES2,SID160735017,-0.757,-2.36,1.69
CABLES2,SID160751069,3.81,29.7,14
CABLES2,SID160751070,0.109,3.73,4.56
PAGE2,SID160724933,3.35,26.5,13.2
PAGE2,SID160724934,-0.826,-2.84,2.16
PAGE2,SID160732673,-0.673,-1.77,2.63
TMEM132E,SID160756249,-0.668,-1.73,3.4
TMEM132E,SID160756250,-0.369,0.373,3.44
TMEM132E,SID160756251,-0.418,0.0241,1.83
RPS25,SID160716207,1.91,16.4,11.9
RPS25,SID160716208,0.57,6.98,6.98
RPS25,SID160716209,3.72,29.2,13.9
ARPC4,SID160730404,4.22,32.7,17.6
ARPC4,SID160775533,-0.0357,2.72,4.13
ARPC4,SID160775544,1.12,10.9,9.15
LOC390877,SID160725283,-0.502,-0.562,3.29
LOC390877,SID160733262,0.139,3.95,6.43
LOC390877,SID160766585,-0.725,-2.14,3.03
PCP2,SID160732411,0.382,5.65,4.9
PCP2,SID160732412,-0.896,-3.34,1.37
PCP2,SID160756378,-0.34,0.572,4.39
MORC4,SID160749249,0.424,5.95,6.35
MORC4,SID160749250,-0.429,-0.0506,4.77
MORC4,SID160749251,1.63,14.5,11.5
RLIM,SID160740145,-0.82,-2.8,1.8
RLIM,SID160740146,5.26 (active),39.9,24
RLIM,SID160740148,-0.194,1.61,4.14
SHC1,SID160716688,1.25,11.7,8.57
SHC1,SID160716689,2.3,19.1,10.3
SHC1,SID160716690,0.587,7.1,8.07
CACNA2D3,SID160744389,-0.0742,2.45,6.18
CACNA2D3,SID160744390,0.0245,3.14,5.84
CACNA2D3,SID160744392,-0.881,-3.23,3.11

Looked up above.
For “G2 cells, % of GMNN control”, TMEM132E [SID160756251] is entered as 0.0241
Under “raw share of cells in G2 (%)”, RLIM [SID160740145] reads 1.8
